Assay results published in PubChem BioAssay AID540276 (National Center for Advancing Translational Sciences (NCATS), 2011).
About 5,400 (1.8%) of roughly 300,000 compounds were called active. Inconclusive results, whose numbers are uncertain, are shown with a selection of clear calls. The call rests on the fitted dose curve; tested in HEK293 cells. A potency beside an inconclusive call is a rough fit, not a confirmed value.

Assay: qHTS for inhibitors of binding or entry into cells for Marburg Virus
Conditions: Marburg virus pseudotyped entry inhibition, cell reporter; activity change, negative = inhibition: at 37.8 µM (top of the series) unless noted
On the % scale 0 is the no-effect control and ±100 the full control effect; potency means the concentration at half of the fitted maximal effect.

Row | SMILES | Potency | activity change, negative = inhibition
1 | CC(C)(C)c1ccc(OC(=O)Cn2c(C(F)(F)F)nc3ccccc32)cc1 | inconclusive: 2.24 µM [activator, partial curve, poor fit] | 
2 | C/C(=C\C(=O)c1ccccc1)Nc1cccc(O)c1 | inconclusive: 6.51 µM [activator, single point] | 
3 | COc1cc(S(=O)(=O)N2CCN(c3ccccc3F)CC2)ccc1Cl | inconclusive: 0.206 µM [inhibitor, full curve, poor fit] | 
4 | O=C(NNC(=S)Nc1ccc(OC(F)F)cc1)c1cc2c(s1)CCCC2 | inconclusive: 0.112 µM [activator, full curve, poor fit] | 
5 | Cc1cc(N/N=C/c2ccncc2)nc2ccccc12 | inconclusive: 29.1 µM [inhibitor, single point] | 
6 | COc1ccc(Cl)cc1NC(=O)COC(=O)C(CC(C)C)N1C(=O)C2CC=CCC2C1=O (stereo not drawn) | inconclusive: 35.5 µM [inhibitor, partial curve, poor fit] | 
7 | CC(=O)Nc1ccc(S(=O)(=O)N2CCC(=O)Nc3ccccc32)cc1 | inconclusive: 2.82 µM [activator, partial curve, poor fit] | 
8 | Cc1c(C(=O)C(=O)N2c3ccc(F)cc3CCC2C)c2ccccc2n1C (stereo not drawn) | inconclusive: 3.16 µM [inhibitor, full curve, poor fit] | 
9 | O=C(Nc1ccc2c(c1)CCCN2C(=O)c1cccs1)c1ccccc1 | inconclusive: 6.31 µM [inhibitor, single point] | 
10 | Cc1c(/C=N/NC(=O)CNc2ccccc2)c2ccccn2c1C(=O)c1ccc(Cl)cc1 | inconclusive: 7.94 µM [inhibitor, partial curve, poor fit] | 
11 | CCOCCCn1c(SCC(=O)Nc2ccc(C(N)=O)cc2)nc2ccccc2c1=O | inconclusive: 0.13 µM [inhibitor, full curve, poor fit] | 
12 | O=C(NCc1cccnc1)C1CCC(c2ccc(Cl)cc2)CC1 (stereo not drawn) | inconclusive: 11.2 µM [inhibitor, partial curve, poor fit] | 
13 | Cc1cccc(-c2nc(CNC(=O)c3ccco3)cs2)c1 |  | inactive: -10.6% [at 46.1 µM]
14 | COc1ccccc1NC(=S)NCC1CCCCC1 |  | inactive: -19.9%
15 | O=C1NN(c2ccc(F)cc2)C(=O)/C1=C\C=C\c1ccco1 |  | inactive: 5.14%
16 | COc1cccc(CNc2nccs2)c1O |  | inactive: -9.08%
17 | COc1ccc(-n2ncc3c(NCCCN4CCOCC4)ncnc32)cc1 | inconclusive: 1.83 µM [activator, partial curve] | 
18 | COc1ccccc1Nc1nc(NCC2CCCO2)c2ccccc2n1 (stereo not drawn) | inconclusive: 22.4 µM [inhibitor, partial curve, poor fit] | 
19 | Cc1cccc(C)c1NC(=O)C1(N(C(=O)c2ccccn2)c2ccc(O)cc2)CCCCC1 | inconclusive: 23.1 µM [inhibitor, partial curve, poor fit] | 
20 | Cc1cc(SCNC(=O)c2ccccc2)nc(C(C)C)n1 |  | inactive: 9.97% [at 46.1 µM]
21 | CCNC(=O)CSc1nc2cc(S(=O)(=O)Nc3ccc(OC)cc3)ccc2o1 | inconclusive: 2.51 µM [inhibitor, partial curve, poor fit] | 
22 | COc1ccc(CCNC(=O)CCCCn2c(=O)c3ccccc3n(Cc3cc(C)ccc3C)c2=O)cc1OC |  | inactive: -26.4% [at 46.1 µM]

Row | SMILES | Potency | activity change, negative = inhibition
23 | Cc1ccc(Sc2ccc(N3CCCC(C(=O)Nc4ccc(F)c(Cl)c4)C3)nn2)cc1 (stereo not drawn) |  | inactive: -3.96% [at 46.1 µM]
24 | O=C(CC1(O)C(=O)Nc2ccccc21)c1ccc(-n2cnnn2)cc1 (stereo not drawn) | inconclusive: 22.4 µM [activator, single point] | 
25 | COc1cc(/C=N/NC(=O)/C(=C/c2ccccc2)CCO)ccc1O |  | inactive: 12.9%
26 | COc1ccc(S(=O)(=O)NC(C)C(=O)NCc2ccccn2)cc1OC (stereo not drawn) |  | inactive: -18.1% [at 46.1 µM]
27 | CCCc1ccc(OCC(=O)Nc2cc(S(=O)(=O)CC)ccc2O)cc1 | inconclusive: 17.8 µM [inhibitor, single point] | 
28 | CC(=O)Nc1cccc(NS(=O)(=O)c2c(C)noc2C)c1 |  | inactive: 7.94%
29 | CCOc1ccccc1NC(=O)Cn1c(=O)n(CC(=O)NCc2ccccc2Cl)c(=O)c2sccc21 | inconclusive: 3.16 µM [activator, single point] | 
30 | O=C(CN(Cc1ccco1)C(=O)Cn1nnc(-c2cccs2)n1)NCc1ccccc1 |  | inactive: -1.62%
31 | Cc1ccc(S(=O)(=O)CC(=O)Nc2ncc([N+](=O)[O-])s2)cc1 |  | inactive: -2.88% [at 46.1 µM]
32 | O=c1c2ccccc2nc(/C=C/c2cccc(Br)c2)n1CCCO | inconclusive: 11.2 µM [inhibitor, partial curve, poor fit] | 
33 | CCN(C(=O)c1cccnc1SC)C12CC3CC(CC(C3)C1)C2 | inconclusive: 22.4 µM [inhibitor, single point] | 
34 | COc1ccc(-n2nc(C(=O)NCC(=O)Nc3cccc(NC(C)=O)c3)c3ccccc3c2=O)cc1 | inconclusive: 4.47 µM [inhibitor, full curve, poor fit] | 
35 | Nc1cc(=O)n(Cc2ccccc2)c(=O)n1-c1ccc(F)cc1 | inconclusive: 11.2 µM [inhibitor, partial curve] | 
36 | Cc1ccc2nc3c(cc(C#N)c(=O)n3-c3nnc(SCc4ccc(F)cc4)s3)c(=O)n2c1 | inconclusive: 4.47 µM [activator, single point] | 
37 | COC(=O)CCC(=O)N1C2=NC3=C(C(=O)N(Cc4ccc5c(c4)OCO5)C3=O)C3N(C)c4ccccc4[C@]23C[C@H]1CO (stereo partly drawn) | inconclusive: 5.31 µM [inhibitor, single point] | 
38 | Cc1ccc(OCCCC(=O)Nc2ccc(S(=O)(=O)Nc3cc(C)on3)cc2)cc1 | inconclusive: 0.259 µM [inhibitor, partial curve, poor fit] | 
39 | CCN(CC(=O)Nc1ccc(NC(C)=O)cc1)C(=O)CSCc1c(C)noc1C |  | inactive: 22.4%
40 | CCC(C)NCC(O)(c1ccc(Cl)cc1)c1ccc(Cl)cc1 (stereo not drawn) | inconclusive: 35.5 µM [inhibitor, single point] | 
41 | CN(C)CCN1CCN(C2CN(C3CCCC3)S(=O)(=O)C2)CC1 (stereo not drawn) | inconclusive: 0.705 µM [inhibitor, full curve, poor fit] | 
42 | CCSc1nc(N)c(C#N)c(-c2ccccc2Cl)c1C#N | inactive | 
43 | Cc1ccc(-c2nnn(CC(=O)Nc3ccc(S(=O)(=O)N4CCC(C)CC4)cc3)n2)cc1 | inconclusive: 17.8 µM [inhibitor, single point] | 

Among those listed so far, these have a thiophene ring, fused or not:
Row | SMILES | Potency | activity change, negative = inhibition
4 | O=C(NNC(=S)Nc1ccc(OC(F)F)cc1)c1cc2c(s1)CCCC2 | inconclusive: 0.112 µM [activator, full curve, poor fit] | 
9 | O=C(Nc1ccc2c(c1)CCCN2C(=O)c1cccs1)c1ccccc1 | inconclusive: 6.31 µM [inhibitor, single point] | 
29 | CCOc1ccccc1NC(=O)Cn1c(=O)n(CC(=O)NCc2ccccc2Cl)c(=O)c2sccc21 | inconclusive: 3.16 µM [activator, single point] | 
30 | O=C(CN(Cc1ccco1)C(=O)Cn1nnc(-c2cccs2)n1)NCc1ccccc1 |  | inactive: -1.62%
